Source: article PMC10163288
Some of the results follow.

B1: il10ra_site1_sap_17_mot_HHH_b1_03314_af2_000000278_0001_42_55_H_._HHH_b2_07118_0001_0000500022_0000002_0_0001 (protein)
chain: SSSSSRAEELARAAAKLVEQAIEHGDEKLARFMLLSLEMLAEESNDPELRKEVEELERELGSSSS
B2: il10ra_site1_sap_18_mot_HHH_b1_05189_000000097_0001_43_57_H_._HHH_b2_01591_af2_0001_0000400030_0000001_0_0001 (protein)
chain: SSSSSEREELAEAIIRLIEQMLKWNDEEALEHLLLALEMLVEEIGDPELRERLEELRELLSSSSS
B3: il10ra_site1_sap_21_mot_HHH_b1_03763_000000278_0001_22_38_H_._HHH_b2_05927_0001_0000300030_0000001_0_0001 (protein)
chain: SSSSDEVVQRAYRLLEEAVELDHKGNPEEAREVLEEVEELAEEANSWVLKAQVKFLLRLLESSSS
B4: il10ra_site1_normal_mot_HHH_b2_03328_af2_000000127_0001_1_19_H_._HHH_b2_01688_0001_0000200028_0000001_0 (protein)
chain: SSSSTEVAEKVYRLSREAAELFYQGNEEEAEEVLEEAERLAEENNNENLLFQVRFLLRQIGSSSS
B5: il10ra_site1_normal_mot_HHH_b2_00277_af2_000000172_0001_1_17_H_._HHH_b1_03809_0001_0000700027_0000001_0_af2pred_0001 (protein)
chain: SSSSSSDIEEKVKELLEEAERIDDPERLSYVLIRAFALATKNNNEELRKEVEEVAKKLVSSSSSS
B6: il10ra_site1_normal_mot_HHH_b1_06240_000000244_0001_42_57_H_._ems_3hC_645_0001_0001_0000200008_0000001_0 (protein)
chain: SSSEEEVEELVKEVREVAEERGDPKARAAARFYEALARDARERNDEEALKQVSLALRAFLDSFSS
B7: il10ra_site1_sap_33_mot_104c758fc23488854646035ccb2100c6_0001_000000282_0001_15_29_H_._4a1b898246c0e7e220e534f5fba321b4_0001_0001_0000300027_0000002_0_0001 (protein)
chain: SSSSDEEDQEVLELSKEIFRLALRGNEEEARELLEKAIELAREIGDERMLKVLEDLLRVLSSSSS
B8: il10ra_site1_normal_mot_HHH_b2_07144_000000289_0001_1_18_H_._HHH_b2_03346_0001_0000400043_0000002_0_af2pred_0001 (protein)
chain: SSSSSSEAEQVYELSREILEVLAEGDEERAKELLEELEELAEESNDPLAEAILRALRSNLSSSSS
B9: il10ra_site1_normal_mot_HHH_b2_03183_af2_000000055_0001_40_56_H_._HHH_b2_02338_af2_0001_0000500011_0000001_0 (protein)
chain: SSSSSQMEELLRAAVILIEQALRFGDERAARLLIESAKMVAERLGDEETLEEIEELEKRVNSSSS
B10: il10ra_site1_normal_mot_HHH_b1_05609_af2_000000134_0001_1_18_H_._HHH_b1_01365_0001_0000100009_0000001_0 (protein)
chain: SSSSDEELEEVLRLSRRIFRLLLRGNEEEARELLEQAIELAREIGDERALRNLESLLQILSSSSS
B11: il10ra_site1_normal_mot_HHH_b1_05357_000000034_0001_23_39_H_._HHH_b1_04796_af2_0001_0000200012_0000001_0_af2pred_0001 (protein)
chain: SSSSSEEELEKLLEKVEELIEKNDPERAKEYIRRALHLAIELRDEHVLRKLLELWILVARLSSSS
B12: il10ra_site1_sap_8_mot_HHH_b2_03328_af2_000000127_0001_1_19_H_._HHH_b1_04080_0001_0000300038_0000001_0_0001 (protein)
chain: SSSSDEDWEEYRKLLQEFVEADHEGDEEELEELLKKLRELAEKANSDILRAQVEWLEELLSSSSS
B13: il10ra_site1_normal_mot_HHH_b1_06912_af2_000000235_0001_1_15_H_._HHH_b2_06035_af2_0001_0000200006_0000001_0_af2pred_0001 (protein)
chain: SSSSSDERAQEVLELIRKALEIDDPEEAQEVLEEALRIAEEANNITFRHIIELLLRELNSSSSSS
B14: il10ra_site1_sap_21_mot_7d06c54ffdcd64f04fd99e25e06e3333_0001_af2_000000000_0001_35_49_H_._036bed11a46af16b1bcff1c055f4941a_0001_0001_0000300008_0000001_0_0001 (protein)
chain: SSSDREEFNEIARKAVRLAFHLNDEETLRELWELIKRYIEEQDPRLLEELEELVEELERLYTSSS
B15: il10ra_site1_normal_mot_HHH_b1_06816_000000239_0001_1_19_H_._HHH_b1_01093_0001_0000300045_0000002_0 (protein)
chain: SSSSDEEFELAEEAIKQAIELYRNGNPEEAERLLREVIEELEELGNEAVVFSLRHLLRALRSSSS
B16: il10ra_site1_normal_mot_HHH_b1_06994_000000193_0001_40_55_H_._HHH_b1_03568_af2_0001_0000300012_0000001_0 (protein)
chain: SSSSQEEELAKALARLIKQALEHGDERAVRILLISLKLIAEELNDEELKEEIEQLERLLEELSSS
B17: il10ra_site1_sap_22_mot_HHH_b2_02053_af2_000000006_0001_3_19_H_._HHH_b1_00803_af2_0001_0000900077_0000001_0_0001_af2pred_0001 (protein)
chain: SSSSDVEEEIRELVERAEELAEQGNPREAAKLLIKAARLAAELGDPELARRIAELYAESLSSSSS
B18: il10ra_site1_sap_26_mot_HHH_b2_07145_000000168_0001_24_40_H_._HHH_b2_05804_0001_0000200020_0000001_0_0001 (protein)
chain: SSSSDQARELAEAALRLARQFDDPRNVEMMVLAVELLVEETGDPELEELLEEIRELLEELRSSSS
B19: il10ra_site1_normal_mot_HHH_b1_04275_000000150_0001_22_39_H_._HHH_b2_08116_af2_0001_0000400013_0000001_1 (protein)
chain: SSSSSDERQEALELAQEAFRALLRGDEEEAERLLREALELAERGNDERLARLIEILLHTLSSSSS
B20: il10ra_site1_sap_24_mot_HHH_b2_04680_000000215_0001_1_16_H_._HHH_b2_03951_af2_0001_0000500027_0000001_0_0001 (protein)
chain: SSSSSSSSEEEVEEILEEAEKVDDEEEASRILLEALELALQLQDPEALRLVWRVVHRFSSSSSSS
B21: il10ra_site1_sap_14_mot_HHH_b1_00456_000000263_0001_1_17_H_._HHH_b1_05223_0001_0000100007_0000001_0_0001_1_af2pred_dldesign_0_af2pred (protein)
chain: SSDYVAAAERVLTEEFEKAKAARDLEALRRLAHLAKAAAEIYQDPRLAAFAARLEAEAEALLSSS
B22: il10ra_site1_normal_mot_a6c796b944619e241e020fd597ddb6da_0001_af2_000000092_0001_15_31_H_._HHH_b1_07083_0001_0000200013_0000001_0_af2pred_0001 (protein)
chain: SSSSSSSEEVRARALVFMAKKASNPDAARIALEIALEIARKLNDEELVEEIEELLEEYSSSSSSS
B23: il10ra_site1_sap_19_mot_HHH_b2_01032_000000296_0001_1_18_H_._HHH_b2_05460_af2_0001_0000100004_0000002_0_0001_af2pred_dldesign_0_af2pred (protein)
chain: SSSSSSNLRQRARALYHFARLIKNPEARRLALEEALKVAKKAGDEELVKEIEAELAKVESSSSSS
B24: il10ra_site1_sap_7_mot_HHH_b1_03250_000000283_0001_1_15_H_._HHH_b1_01506_0001_0000100002_0000003_0_0001_af2pred_0001 (protein)
chain: SSSSSSEELKEVQKLIREAVQIEDPEEARKIAEEALELAKEANNELLRLIIEFLLEQLGSSSSSS
B25: il10ra_site1_normal_mot_HHH_b2_06602_000000226_0001_1_16_H_._HHH_b2_00812_0001_0000100003_0000001_0 (protein)
chain: SSSSSEEEAFQLAVQAYFALDQGDREEAEKLLEELRELVEELGDHNLEAYVMALEELVRELSSSS
B26: il10ra_site1_normal_mot_HHH_b1_02665_000000293_0001_1_18_H_._HHH_b2_02363_0001_0000500037_0000002_0 (protein)
chain: SSSSDELEELVEELRKLLEELGDRNAIFLLEQVLKLIEELNDPKLRERLEQLLRILERELSSSSS
B27: il10ra_site1_normal_mot_8756ee2cf497b5429c717dfc0c0bcfd6_0001_000000186_0001_1_13_H_._HHH_b2_02451_af2_0001_0000200003_0000002_0 (protein)
chain: SSSSDESQEVAEAIRKVAELLQEGDEEEAEELAEEALKIARELGNDVLVVQLEYLLKLAESSSSS
B28: il10ra_site1_sap_20_mot_HHH_b2_02053_af2_000000006_0001_3_19_H_._HHH_b1_02415_0001_0000100011_0000001_0_0001 (protein)
chain: SSSSSSDVEELLEEAQELAERGNPEEANKVLQEAVRAIYHLGDEELLQELWELVEKINSSSSSSS
B29: il10ra_site1_sap_17_mot_HHH_b1_04804_000000089_0001_44_57_H_._HHH_b1_06407_af2_0001_0000400025_0000001_0_0001 (protein)
chain: SSSSSQASQEAQRLLEEAAELLRNGNPEEAEKVAREALEVAEEGNNWAARFAIELLLRDIGSSSS
B30: il10ra_site1_sap_18_mot_HHH_b1_06788_af2_000000238_0001_19_36_H_._HHH_b2_05035_0001_0000300028_0000001_0_0001_af2pred_0001 (protein)
chain: SSSSSDAERAARSAVRAVRFLLELNDEERFEIALRVAKASAKDAGDEEVEEILEEIERRLSSSSS
B31: il10ra_site1_normal_mot_HHH_b2_08186_000000021_0001_43_56_H_._HHH_b1_06333_af2_0002_0000200009_0000001_0 (protein)
chain: SSSSDEKERVEELIEEAEKVYEEEKDPEKALEILLEALQLALEGNDPELLQELWKLLKELGSSSS
B32: il10ra_site1_normal_mot_HHH_b2_08144_af2_000000046_0001_38_52_H_._HHH_b1_04606_0001_0000200028_0000001_0 (protein)
chain: SSSSNEEHEELYRLSREAAELAAEGDEEEARELLEEAEELAKELGNRLFLIQLRFLLRLLSSSSS
B33: il10ra_site1_sap_20_mot_5aed09890fd46f02a60ca541bcb2e05a_0001_1_000000092_0001_15_31_H_._3e7f9dc7757c9be4a21a7eaad61dbf0f_0001_1_0001_0000100002_0000003_0_0001_ … (protein)
chain: SSSSDLEEEIEELREELREALERGDEELALRLLRRLLRLAQETNDRELLEELFEIARELASSSSS
B34: il10ra_site1_normal_mot_HHH_b2_01776_000000118_0001_38_52_H_._ems_3hC_921_0001_0001_0000100011_0000002_0 (protein)
chain: SSPEEAEKLLEEAEKLARELNDKNALFIVRQLKKLLKRAEELNDERAVELVLEVAKNLLEELESS
B35: il10ra_site1_sap_23_mot_HHH_b2_03240_000000221_0001_1_18_H_._HHH_b2_06996_0001_0000100001_0000001_0_0001 (protein)
chain: SSSSNVRERAARVAIEVLRIAFRRSDPEILREVWELFRRIIEEGDPELLEELEKLLEELRSSSSS
B36: il10ra_site1_sap_21_mot_HHH_b2_02694_000000228_0001_1_18_H_._HHH_b2_03245_af2_0001_0000400023_0000001_0_0001_af2pred_dldesign_0_af2pred (protein)
chain: SSSSDPEQEVVELIREVVRLKDAGKLEEAKEVLKKARELAEALGDAELIAAVEKVEKYVLSSSSS
B37: il10ra_site1_normal_mot_HHH_b2_02337_000000026_0001_38_52_H_._HHH_b2_04776_0001_0000200023_0000003_0 (protein)
chain: SSSSSSEEEEEIEELLEQLERAKSDEEISEVALRLVRLIWELNNQELLQRLWEIVKRLASSSSSS

molecular target: il10ra, Q13651; experiment: yeast display titration

Apparent Kd, inactive:
B1 no binding seen
B2 no binding seen
B3 no binding seen
B4 no binding seen
B5 no binding seen
B6 no binding seen
B7 no binding seen
B8 no binding seen
B9 no binding seen
B10 no binding seen
B11 no binding seen
B12 no binding seen
B13 no binding seen
B14 no binding seen
B15 no binding seen
B16 no binding seen
B17 no binding seen
B18 no binding seen
B19 no binding seen
B20 no binding seen
B21 no binding seen
B22 no binding seen
B23 no binding seen
B24 no binding seen
B25 no binding seen
B26 no binding seen
B27 no binding seen
B28 no binding seen
B29 no binding seen
B30 no binding seen
B31 no binding seen
B32 no binding seen
B33 no binding seen
B34 no binding seen
B35 no binding seen
B36 no binding seen
B37 no binding seen

Fetched one by one from above (3):
Apparent Kd, inactive:
B31 no binding seen
B33 no binding seen
B17 no binding seen
